This is an account of results in patent publication EP4755912A1 (Shandong Boan Biotechnology Co., Ltd., dated 2026).

Results are given in words; binding and its absence hold for the method and conditions named. Some results given as binding are weak or reduced against the parent protein; the word gives no strength.

The target of one assay is T1, Human CD228 protein (human, UniProt P08582 20-708, limits assumed).
T1 construct: A His tag is named only for the panning and Western blot material (CD228-His); also called CD228 antigenic protein; C28
T1 sequence: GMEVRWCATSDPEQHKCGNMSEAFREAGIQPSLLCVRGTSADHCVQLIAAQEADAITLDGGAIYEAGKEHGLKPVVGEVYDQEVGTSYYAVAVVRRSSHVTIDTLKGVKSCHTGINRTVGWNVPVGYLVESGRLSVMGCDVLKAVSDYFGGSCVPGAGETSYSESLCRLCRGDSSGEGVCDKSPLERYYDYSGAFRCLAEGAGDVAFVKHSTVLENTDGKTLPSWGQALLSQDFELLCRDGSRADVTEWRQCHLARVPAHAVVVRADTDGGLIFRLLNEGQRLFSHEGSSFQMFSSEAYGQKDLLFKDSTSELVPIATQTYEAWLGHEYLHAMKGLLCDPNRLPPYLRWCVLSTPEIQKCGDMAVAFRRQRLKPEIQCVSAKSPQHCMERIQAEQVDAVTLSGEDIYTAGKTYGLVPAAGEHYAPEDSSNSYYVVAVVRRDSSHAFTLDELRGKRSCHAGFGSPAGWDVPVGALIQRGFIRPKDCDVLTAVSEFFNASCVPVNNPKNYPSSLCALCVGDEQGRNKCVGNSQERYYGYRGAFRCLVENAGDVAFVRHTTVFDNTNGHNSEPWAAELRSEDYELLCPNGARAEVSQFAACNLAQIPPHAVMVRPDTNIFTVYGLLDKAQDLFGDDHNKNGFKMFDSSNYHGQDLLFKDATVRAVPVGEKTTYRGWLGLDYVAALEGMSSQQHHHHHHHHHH
The assay can be described thus: ELISA.

Assay [1] concerns the target T2, CD228 as expressed in human A375 cells and human tumor tissue sections (human) (UniProt P08582).
T2 sequence (looked up): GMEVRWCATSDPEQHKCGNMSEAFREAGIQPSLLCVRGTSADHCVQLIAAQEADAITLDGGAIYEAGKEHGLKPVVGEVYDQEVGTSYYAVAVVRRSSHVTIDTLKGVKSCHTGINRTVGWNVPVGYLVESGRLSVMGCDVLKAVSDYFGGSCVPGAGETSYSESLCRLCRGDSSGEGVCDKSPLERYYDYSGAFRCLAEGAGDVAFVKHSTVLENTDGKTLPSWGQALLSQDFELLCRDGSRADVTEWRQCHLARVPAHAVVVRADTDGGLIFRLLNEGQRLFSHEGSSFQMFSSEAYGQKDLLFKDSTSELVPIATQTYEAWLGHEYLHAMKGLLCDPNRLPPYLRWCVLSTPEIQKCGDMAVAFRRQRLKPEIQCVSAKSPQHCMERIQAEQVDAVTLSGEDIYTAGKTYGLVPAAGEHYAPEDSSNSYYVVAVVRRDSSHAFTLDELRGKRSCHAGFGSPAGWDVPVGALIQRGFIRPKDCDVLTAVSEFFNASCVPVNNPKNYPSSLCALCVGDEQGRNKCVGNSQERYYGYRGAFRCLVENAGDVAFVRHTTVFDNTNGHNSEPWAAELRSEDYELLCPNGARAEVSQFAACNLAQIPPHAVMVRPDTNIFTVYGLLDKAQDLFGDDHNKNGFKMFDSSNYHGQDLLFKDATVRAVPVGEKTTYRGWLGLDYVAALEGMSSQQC
The assay can be described thus: Western blot of A375 cell lysate. For orientation: In western blotting, separated proteins are transferred to a membrane and probed.

B1: R526 (antibody, V domains shown)
VH: QEQLEESGGRLVTPGTPLTLTCTVSGFSLSTYAINWIRQAPGKGLEWIGIIGGNGATYYTNWAKGRFTISKTSTTVDLKITSPTIEDTATYFCARGTNFWGPGTLVTVSS
VL: DPVLTQTASPVSAAVGGTITINCQASQSVYNNNQLSWFQQNPGQPPKRLIHSTSTLAPGVSSRFKGSGSGTQFTLTISDVQCDDAATYYCLGSYDCVSADCNAFGGGTEVVVKG
notes: Rabbit-derived clone, full-length antibody with rabbit constant regions
For the molecule B1, the binding result (in the assay with Human CD228 protein; in assay [1]) was “binds” throughout.
